# Hit rate of the full screen: of about 360,000 compounds, about 10,000 (2.8%) were called active. Inconclusive means that the source gave no clear call. Such entries were picked first, then a sample of the others. Calls follow the shape of the dose curve; as a rule, active = well fitted inhibition curve with a large enough effect; inconclusive = small, poorly fitted or top-dose-only effect; inactive = flat fitted curve, though single readings scatter. A potency beside an inconclusive call is a rough fit, not a confirmed value.
# Amino acid sequences for entries named in this document (tags omitted).
# UniProt P53350, whole entry, looked up: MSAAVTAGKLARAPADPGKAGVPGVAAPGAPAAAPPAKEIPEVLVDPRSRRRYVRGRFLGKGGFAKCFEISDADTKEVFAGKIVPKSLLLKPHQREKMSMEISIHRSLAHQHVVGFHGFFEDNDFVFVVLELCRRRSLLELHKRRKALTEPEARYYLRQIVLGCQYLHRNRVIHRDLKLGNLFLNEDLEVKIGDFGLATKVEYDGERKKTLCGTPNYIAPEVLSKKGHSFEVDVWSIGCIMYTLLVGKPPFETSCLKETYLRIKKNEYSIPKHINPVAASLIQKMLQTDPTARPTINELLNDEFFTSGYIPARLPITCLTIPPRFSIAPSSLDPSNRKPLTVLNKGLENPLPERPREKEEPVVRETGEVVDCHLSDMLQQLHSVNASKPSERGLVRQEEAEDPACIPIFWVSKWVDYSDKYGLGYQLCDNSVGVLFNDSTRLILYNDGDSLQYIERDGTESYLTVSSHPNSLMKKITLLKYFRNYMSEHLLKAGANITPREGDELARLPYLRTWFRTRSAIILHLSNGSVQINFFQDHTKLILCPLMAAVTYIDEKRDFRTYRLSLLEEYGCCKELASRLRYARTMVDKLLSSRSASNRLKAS
# Biological target: Serine/threonine-protein kinase PLK1 (Homo sapiens) (UniProt P53350)
# Assay: qHTS for Inhibitors of PLK1-PDB (polo-like kinase 1 - polo-box domain): Primary Screen; also: nearly all actives have a fitted effect of over 65% in size; as to max response, negative = inhibition: series mostly up to about 57 µM
# Conditions: Plk1 PBD binding of FITC phosphopeptide, fluorescence polarization
# % is scaled to controls: 0 for no effect and ±100 for the full control effect; potency is read from the fitted curve at half-maximal effect.
SMILES,Potency,"max response, negative = inhibition"
O=C(COc1ccc2c(c1)CCC2)N1CCc2ccccc21,active: 3.77 µM,
COc1ccc(Cc2nnc(SCC(=O)N3CCCCC3)o2)cc1,"inconclusive: 7.52 µM [inhibitor, full curve]",
CC(C)CCNC(=O)CSc1nc2ccccc2s1,"inconclusive: 13.4 µM [inhibitor, partial curve]",
COc1cc(C)c(NC(=S)Nc2cccc(Cl)c2)cc1OC,"inconclusive: 37.7 µM [inhibitor, partial curve]",
Cc1ccccc1S(=O)(=O)/N=C(/c1ccccc1)N1CCOCC1,active: 26.7 µM,
O=C(O)c1ccc(S(=O)(=O)/N=C2\C=C(Nc3ccccc3F)C(=O)c3ccccc32)cc1,active: 29.9 µM,
O=C(c1cccc(-n2cccc2)c1)N1CCN(S(=O)(=O)c2ccccc2)CC1,"inconclusive: 13.4 µM [inhibitor, partial curve]",
CCCN(C(=O)CSc1nc2c(cnn2-c2ccccc2)c(=O)[nH]1)C1CCS(=O)(=O)C1 (stereo not given),"inconclusive: 29.9 µM [inhibitor, single point]",
CCN(C(=O)CN1CCN(C)CC1)c1cccc2ccccc12,,inactive: -1.4%
CCn1c(C)c(C(C)=O)c(N2CCN(c3ccccc3)CC2)nc1=S,,inactive: -13%
COCc1cc(C)nc(Oc2ccccc2)c1C#N,"inconclusive: 37.7 µM [inhibitor, partial curve]",
CC(C)Cn1[nH]c2c3c(ccc2c1=O)C(=O)c1ccccc1C3=O,,inactive: -5.32%
N#C/C(=C\c1ccco1)C(=O)Nc1cccc2ncccc12,,inactive: -1.5%
Cc1nc2nc(SCC(=O)NCc3ccco3)nn2c(C)c1Cc1ccccc1,"inconclusive: 26.7 µM [inhibitor, partial curve]",
O=C(c1ccc2c(c1)N(Cc1ccccc1F)C(=O)c1ccccc1S2(=O)=O)N1CCCC1,,inactive: -4.43%
O=C(CCNC(=O)C1CCN(S(=O)(=O)c2ccccc2)CC1)NCc1ccccc1Cl,"inconclusive: 23.8 µM [inhibitor, partial curve]",
CC1=Nc2cc(C(=O)O)ccc2Sc2ccc(Br)cc21,"inconclusive: 29.9 µM [inhibitor, partial curve]",
COC(=O)c1ccc(CSc2nnc(Nc3cccc(OC)c3)s2)o1,"inconclusive: 29.9 µM [inhibitor, single point]",
COc1ccc(C(=O)NCC(=O)OCC(=O)Nc2sccc2C#N)cc1OC,"inconclusive: 23.8 µM [inhibitor, partial curve]",
COc1cc(C(=O)Sc2ccc(Cl)cc2)cc(OC)c1OC,"inconclusive: 9.47 µM [inhibitor, partial curve]",

# Two compounds picked at random from the list so far, as already listed:
SMILES,Potency,"max response, negative = inhibition"
COc1cc(C(=O)Sc2ccc(Cl)cc2)cc(OC)c1OC,"inconclusive: 9.47 µM [inhibitor, partial curve]",
O=C(c1cccc(-n2cccc2)c1)N1CCN(S(=O)(=O)c2ccccc2)CC1,"inconclusive: 13.4 µM [inhibitor, partial curve]",

# — PubChem BioAssay AID720504 (National Center for Advancing Translational Sciences (NCATS), 2013)
